Source: PMC8548913, “Piezo1–Pannexin1 complex couples force detection to ATP secretion in cholangiocytes” (The Journal of General Physiology, 2021)
Results are given in words; binding and its absence hold for the method and conditions named. Binding seen in cells or lysates may run through a third protein. Some results given as binding are weak or reduced against the parent protein; the word gives no strength. One block for each substance: values may come before it.

The chains behind the UniProt entries cited, without tags or fusion partners.
UniProt E2JF22: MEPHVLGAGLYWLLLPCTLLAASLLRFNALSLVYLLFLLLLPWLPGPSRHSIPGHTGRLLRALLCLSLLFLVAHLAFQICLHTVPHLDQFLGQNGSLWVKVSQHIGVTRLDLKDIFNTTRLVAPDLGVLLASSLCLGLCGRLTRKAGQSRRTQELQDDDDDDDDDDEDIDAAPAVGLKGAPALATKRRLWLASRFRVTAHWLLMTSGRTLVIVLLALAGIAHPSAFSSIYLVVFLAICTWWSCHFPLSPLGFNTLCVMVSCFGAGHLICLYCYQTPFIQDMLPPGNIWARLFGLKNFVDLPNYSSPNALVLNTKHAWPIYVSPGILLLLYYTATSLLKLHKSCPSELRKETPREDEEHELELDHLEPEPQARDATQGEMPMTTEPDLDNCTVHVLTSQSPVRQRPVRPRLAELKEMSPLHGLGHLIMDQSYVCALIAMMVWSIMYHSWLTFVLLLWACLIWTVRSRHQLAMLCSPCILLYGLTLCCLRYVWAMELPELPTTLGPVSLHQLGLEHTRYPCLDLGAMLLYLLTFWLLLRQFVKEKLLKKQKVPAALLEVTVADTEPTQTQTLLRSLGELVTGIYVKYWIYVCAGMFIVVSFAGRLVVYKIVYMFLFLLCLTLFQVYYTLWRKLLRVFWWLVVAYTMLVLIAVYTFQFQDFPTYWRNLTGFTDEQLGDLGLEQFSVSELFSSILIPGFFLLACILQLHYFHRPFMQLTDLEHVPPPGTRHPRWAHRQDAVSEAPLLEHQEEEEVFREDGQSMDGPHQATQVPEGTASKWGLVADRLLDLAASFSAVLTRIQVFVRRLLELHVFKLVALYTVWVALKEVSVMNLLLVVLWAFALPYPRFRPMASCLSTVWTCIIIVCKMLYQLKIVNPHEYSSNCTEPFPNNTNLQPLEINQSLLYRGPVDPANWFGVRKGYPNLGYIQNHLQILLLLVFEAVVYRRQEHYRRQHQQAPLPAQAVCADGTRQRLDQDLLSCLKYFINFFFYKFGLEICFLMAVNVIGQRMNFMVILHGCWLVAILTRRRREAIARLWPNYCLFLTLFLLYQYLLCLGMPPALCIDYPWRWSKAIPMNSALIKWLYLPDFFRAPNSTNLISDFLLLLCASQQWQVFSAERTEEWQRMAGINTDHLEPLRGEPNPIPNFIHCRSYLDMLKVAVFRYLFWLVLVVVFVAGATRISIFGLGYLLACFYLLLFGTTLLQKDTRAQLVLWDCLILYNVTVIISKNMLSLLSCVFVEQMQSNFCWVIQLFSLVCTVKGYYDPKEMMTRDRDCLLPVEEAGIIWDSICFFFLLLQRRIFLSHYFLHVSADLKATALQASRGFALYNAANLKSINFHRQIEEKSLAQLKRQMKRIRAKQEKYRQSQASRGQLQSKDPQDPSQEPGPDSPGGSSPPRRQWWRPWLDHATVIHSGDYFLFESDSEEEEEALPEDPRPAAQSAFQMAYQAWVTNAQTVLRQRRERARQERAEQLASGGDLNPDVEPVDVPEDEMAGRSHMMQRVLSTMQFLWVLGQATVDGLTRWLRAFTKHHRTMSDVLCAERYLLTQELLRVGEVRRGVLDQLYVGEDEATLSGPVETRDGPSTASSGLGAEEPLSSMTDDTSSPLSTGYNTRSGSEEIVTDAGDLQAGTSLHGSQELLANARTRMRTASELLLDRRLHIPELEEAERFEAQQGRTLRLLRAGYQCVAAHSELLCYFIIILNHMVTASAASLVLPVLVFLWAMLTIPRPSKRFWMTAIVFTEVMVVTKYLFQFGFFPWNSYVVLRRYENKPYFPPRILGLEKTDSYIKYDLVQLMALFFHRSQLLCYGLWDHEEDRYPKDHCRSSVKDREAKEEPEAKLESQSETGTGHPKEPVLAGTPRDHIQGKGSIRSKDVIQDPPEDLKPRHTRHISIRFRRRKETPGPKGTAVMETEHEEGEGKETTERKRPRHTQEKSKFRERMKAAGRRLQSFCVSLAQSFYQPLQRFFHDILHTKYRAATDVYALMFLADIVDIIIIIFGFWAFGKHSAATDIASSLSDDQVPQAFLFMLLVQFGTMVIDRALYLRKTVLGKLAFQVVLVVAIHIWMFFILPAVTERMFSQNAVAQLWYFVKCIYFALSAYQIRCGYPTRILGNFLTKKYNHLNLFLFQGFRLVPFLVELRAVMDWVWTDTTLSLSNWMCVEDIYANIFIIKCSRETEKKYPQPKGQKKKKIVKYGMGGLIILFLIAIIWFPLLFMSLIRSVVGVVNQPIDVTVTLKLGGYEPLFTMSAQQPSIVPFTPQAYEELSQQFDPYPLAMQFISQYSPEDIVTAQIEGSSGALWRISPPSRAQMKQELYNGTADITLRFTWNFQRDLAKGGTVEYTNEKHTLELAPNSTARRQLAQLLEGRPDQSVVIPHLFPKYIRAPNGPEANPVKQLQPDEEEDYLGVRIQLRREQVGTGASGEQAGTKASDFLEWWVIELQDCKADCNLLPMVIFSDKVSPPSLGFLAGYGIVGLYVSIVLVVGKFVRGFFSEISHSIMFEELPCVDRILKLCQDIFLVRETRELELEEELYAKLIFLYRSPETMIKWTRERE
UniProt Q9JIP4: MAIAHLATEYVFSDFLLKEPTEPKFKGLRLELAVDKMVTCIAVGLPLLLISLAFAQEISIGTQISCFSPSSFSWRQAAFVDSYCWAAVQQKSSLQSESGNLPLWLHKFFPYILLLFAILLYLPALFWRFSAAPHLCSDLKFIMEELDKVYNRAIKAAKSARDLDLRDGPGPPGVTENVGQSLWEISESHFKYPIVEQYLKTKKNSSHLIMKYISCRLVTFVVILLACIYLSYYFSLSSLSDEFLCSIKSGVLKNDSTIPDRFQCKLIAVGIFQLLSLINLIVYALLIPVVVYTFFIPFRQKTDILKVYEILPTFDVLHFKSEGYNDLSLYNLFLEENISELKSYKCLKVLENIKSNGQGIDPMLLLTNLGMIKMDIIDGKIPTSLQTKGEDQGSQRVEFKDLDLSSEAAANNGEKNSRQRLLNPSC

Columns and labels:
[1] = biological target: GFP-tagged mPiezo1 (mouse) (UniProt E2JF22); assay: co-IP; lysates of cotransfected HEK293T-P1KO cells; protein A magnetic beads coated with rabbit polyclonal anti-flag (10 ug) or anti-GFP (5 ug) antibody, 1 h; washed with PBS-Tween 0.1% at room temperature; immunoblot against the tags; anti-Ki67 as control antibody
[2] = biological target: flag-tagged mPanx1 (mouse) (UniProt Q9JIP4); assay: as above
[3] = biological target: Piezo1 (endogenous, normal mouse cholangiocytes) (mouse (endogenous in NMC)) (UniProt E2JF22); assay: co-IP; NMC lysate; Dynabeads coimmunoprecipitation kit with rabbit polyclonal anti-Piezo1 (Thermo Fisher Scientific) or anti-Ki67 covalently linked to magnetic beads; extraction buffer with 150 mM NaCl, 20 mM N-ethylmaleimide, 1.2% Triton X-100; immunoblot with anti-Panx1

binding [1]: binds
Substance: flag-tagged mPanx1 (from UniProt Q9JIP4 1-426)

binding [2]: binds
Substance: GFP-tagged mPiezo1 (from UniProt E2JF22 1-2547)

binding [3]: binds
Substance: Panx1 (endogenous, normal mouse cholangiocytes) (from UniProt Q9JIP4 1-426)
